PubChem BioAssay AID1259286 | Sanger Institute, 2017
Screen: 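Kinases whose loss adds to targeted drug killing of colorectal cancer cells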 (primary screen). Cells: NCI-H630 human colorectal cancer cells. Reagents: siRNA pool against human genes. Treatment: anchor drugs BYL719 at 1 µM, cetuximab at 5 µg/ml or trametinib at 10 nM, or DMSO vehicle alone; exposure time not given. Detection: 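Viability relative to non-targeting pool wells, averaged over replicates, with robust z-score for knock-down alone and a synergy score for each anchor drug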. Direction: viability z-score, knock-down alone: higher = more viable cells, weaker knock-down effect. Active means: 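a gene is called essential when its knock-down-alone viability robust z-score is below -3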. Calls: active = essential when knocked down alone; inactive = not essential alone.
Here is an unselected part of 794 deposited reagents. In the full data, 17 (2.1%) got an active call. 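Calls use knock-down alone only; synergy above 0.15 marked separately; viability seems capped at control level; exposure time not given.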 Not all columns of the deposit are shown. Not stated in the record: the amount of reagent, the time to read-out.

Against SGK2 (serum/glucocorticoid regulated kinase 2), the entry reads viability z-score, knock-down alone -0.506; inactive.
RYK (receptor like tyrosine kinase) showed viability z-score, knock-down alone 0.464; inactive.
Knock-down of EGFR (epidermal growth factor receptor) came out at: viability z-score, knock-down alone -0.806; inactive.
STYK1 (STY kinase 1) gave viability z-score, knock-down alone -4.87; active.
After knock-down of NUAK2 (NUAK family kinase 2), the record shows viability z-score, knock-down alone -0.0619; inactive.
Against ACSL6 (acyl-CoA synthetase long chain family member 6), the values are viability z-score, knock-down alone -2.63; inactive.
Depletion of MAP3K4 (mitogen-activated protein kinase kinase kinase 4) resulted in: viability z-score, knock-down alone 0.404; inactive.

Entries above whose gene name starts with S or s:
SGK2 (serum/glucocorticoid regulated kinase 2) | viability z-score, knock-down alone = -0.506; activity call = inactive
STYK1 (STY kinase 1) | viability z-score, knock-down alone = -4.87; activity call = active

Next reagents follow:
MED12 (mediator complex subunit 12) gave viability z-score, knock-down alone -0.346; inactive.
With knock-down of DLG2 (discs large MAGUK scaffold protein 2), the screen gave viability z-score, knock-down alone 0.464; inactive.
Against LRRK2 (leucine rich repeat kinase 2) the deposit lists viability z-score, knock-down alone 0.464; inactive.
With knock-down of GRK6 (G protein-coupled receptor kinase 6), the record shows viability z-score, knock-down alone 0.186; inactive.
Against PHKG2 (phosphorylase kinase catalytic subunit gamma 2), the values are viability z-score, knock-down alone 0.464; inactive.
